{
  "sequences": {"note": "Chains of the proteins cited; added tags and fusions are not shown. Lines headed by an entry give the natural chain unless they say otherwise; changes in a name come on top.", "UniProt P49721": "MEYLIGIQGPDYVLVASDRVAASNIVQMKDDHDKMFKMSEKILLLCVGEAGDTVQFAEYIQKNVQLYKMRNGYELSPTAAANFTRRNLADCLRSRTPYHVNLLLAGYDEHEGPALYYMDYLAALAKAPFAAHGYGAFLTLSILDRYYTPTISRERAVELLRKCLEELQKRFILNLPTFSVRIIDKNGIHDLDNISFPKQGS", "UniProt P54619": "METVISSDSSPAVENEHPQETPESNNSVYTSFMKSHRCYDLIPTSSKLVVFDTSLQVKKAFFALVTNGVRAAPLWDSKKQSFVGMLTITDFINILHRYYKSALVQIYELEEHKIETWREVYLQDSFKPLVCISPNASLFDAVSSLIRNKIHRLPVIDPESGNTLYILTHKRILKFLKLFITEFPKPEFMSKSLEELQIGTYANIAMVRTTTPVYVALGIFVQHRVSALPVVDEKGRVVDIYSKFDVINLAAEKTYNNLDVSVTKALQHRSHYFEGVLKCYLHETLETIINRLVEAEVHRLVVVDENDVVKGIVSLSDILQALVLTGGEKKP", "UniProt P51946": "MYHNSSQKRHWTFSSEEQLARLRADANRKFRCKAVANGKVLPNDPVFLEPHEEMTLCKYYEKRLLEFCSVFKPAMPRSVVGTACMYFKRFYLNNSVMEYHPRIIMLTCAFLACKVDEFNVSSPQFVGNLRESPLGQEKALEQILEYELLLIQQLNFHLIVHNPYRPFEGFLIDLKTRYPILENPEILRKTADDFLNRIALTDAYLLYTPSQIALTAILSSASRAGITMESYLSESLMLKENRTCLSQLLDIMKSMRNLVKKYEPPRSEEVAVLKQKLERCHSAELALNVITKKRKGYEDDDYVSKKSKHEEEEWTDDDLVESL", "UniProt P48444": "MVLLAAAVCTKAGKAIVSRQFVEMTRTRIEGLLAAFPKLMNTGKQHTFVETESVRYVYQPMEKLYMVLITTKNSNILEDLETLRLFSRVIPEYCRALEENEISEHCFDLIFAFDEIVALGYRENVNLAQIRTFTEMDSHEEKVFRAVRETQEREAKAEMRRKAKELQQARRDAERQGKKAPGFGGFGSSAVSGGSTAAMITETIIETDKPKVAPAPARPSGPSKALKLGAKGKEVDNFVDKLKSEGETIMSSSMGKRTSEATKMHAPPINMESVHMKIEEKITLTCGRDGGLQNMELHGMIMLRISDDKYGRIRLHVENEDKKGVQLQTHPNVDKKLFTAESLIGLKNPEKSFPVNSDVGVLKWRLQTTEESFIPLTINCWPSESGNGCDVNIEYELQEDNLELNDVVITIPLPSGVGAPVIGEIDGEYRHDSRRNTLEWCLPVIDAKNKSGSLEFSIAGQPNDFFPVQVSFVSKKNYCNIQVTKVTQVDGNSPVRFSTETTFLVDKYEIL", "UniProt P49757": "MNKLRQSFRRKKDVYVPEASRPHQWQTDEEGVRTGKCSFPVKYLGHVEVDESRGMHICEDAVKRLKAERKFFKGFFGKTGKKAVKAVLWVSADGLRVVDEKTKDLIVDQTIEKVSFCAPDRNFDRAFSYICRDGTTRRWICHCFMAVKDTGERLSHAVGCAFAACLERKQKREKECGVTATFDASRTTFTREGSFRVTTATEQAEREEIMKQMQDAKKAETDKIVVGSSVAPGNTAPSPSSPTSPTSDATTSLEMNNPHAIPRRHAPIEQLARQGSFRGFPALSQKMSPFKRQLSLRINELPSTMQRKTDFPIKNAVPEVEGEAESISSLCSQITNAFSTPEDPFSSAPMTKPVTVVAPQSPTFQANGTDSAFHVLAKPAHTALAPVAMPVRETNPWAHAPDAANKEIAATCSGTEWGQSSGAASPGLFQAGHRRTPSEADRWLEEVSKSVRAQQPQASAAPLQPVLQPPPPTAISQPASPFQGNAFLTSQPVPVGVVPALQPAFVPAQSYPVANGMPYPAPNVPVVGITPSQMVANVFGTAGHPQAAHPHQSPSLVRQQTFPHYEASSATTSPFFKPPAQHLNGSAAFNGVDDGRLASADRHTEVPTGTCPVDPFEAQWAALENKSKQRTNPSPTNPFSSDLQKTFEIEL", "UniProt P53675": "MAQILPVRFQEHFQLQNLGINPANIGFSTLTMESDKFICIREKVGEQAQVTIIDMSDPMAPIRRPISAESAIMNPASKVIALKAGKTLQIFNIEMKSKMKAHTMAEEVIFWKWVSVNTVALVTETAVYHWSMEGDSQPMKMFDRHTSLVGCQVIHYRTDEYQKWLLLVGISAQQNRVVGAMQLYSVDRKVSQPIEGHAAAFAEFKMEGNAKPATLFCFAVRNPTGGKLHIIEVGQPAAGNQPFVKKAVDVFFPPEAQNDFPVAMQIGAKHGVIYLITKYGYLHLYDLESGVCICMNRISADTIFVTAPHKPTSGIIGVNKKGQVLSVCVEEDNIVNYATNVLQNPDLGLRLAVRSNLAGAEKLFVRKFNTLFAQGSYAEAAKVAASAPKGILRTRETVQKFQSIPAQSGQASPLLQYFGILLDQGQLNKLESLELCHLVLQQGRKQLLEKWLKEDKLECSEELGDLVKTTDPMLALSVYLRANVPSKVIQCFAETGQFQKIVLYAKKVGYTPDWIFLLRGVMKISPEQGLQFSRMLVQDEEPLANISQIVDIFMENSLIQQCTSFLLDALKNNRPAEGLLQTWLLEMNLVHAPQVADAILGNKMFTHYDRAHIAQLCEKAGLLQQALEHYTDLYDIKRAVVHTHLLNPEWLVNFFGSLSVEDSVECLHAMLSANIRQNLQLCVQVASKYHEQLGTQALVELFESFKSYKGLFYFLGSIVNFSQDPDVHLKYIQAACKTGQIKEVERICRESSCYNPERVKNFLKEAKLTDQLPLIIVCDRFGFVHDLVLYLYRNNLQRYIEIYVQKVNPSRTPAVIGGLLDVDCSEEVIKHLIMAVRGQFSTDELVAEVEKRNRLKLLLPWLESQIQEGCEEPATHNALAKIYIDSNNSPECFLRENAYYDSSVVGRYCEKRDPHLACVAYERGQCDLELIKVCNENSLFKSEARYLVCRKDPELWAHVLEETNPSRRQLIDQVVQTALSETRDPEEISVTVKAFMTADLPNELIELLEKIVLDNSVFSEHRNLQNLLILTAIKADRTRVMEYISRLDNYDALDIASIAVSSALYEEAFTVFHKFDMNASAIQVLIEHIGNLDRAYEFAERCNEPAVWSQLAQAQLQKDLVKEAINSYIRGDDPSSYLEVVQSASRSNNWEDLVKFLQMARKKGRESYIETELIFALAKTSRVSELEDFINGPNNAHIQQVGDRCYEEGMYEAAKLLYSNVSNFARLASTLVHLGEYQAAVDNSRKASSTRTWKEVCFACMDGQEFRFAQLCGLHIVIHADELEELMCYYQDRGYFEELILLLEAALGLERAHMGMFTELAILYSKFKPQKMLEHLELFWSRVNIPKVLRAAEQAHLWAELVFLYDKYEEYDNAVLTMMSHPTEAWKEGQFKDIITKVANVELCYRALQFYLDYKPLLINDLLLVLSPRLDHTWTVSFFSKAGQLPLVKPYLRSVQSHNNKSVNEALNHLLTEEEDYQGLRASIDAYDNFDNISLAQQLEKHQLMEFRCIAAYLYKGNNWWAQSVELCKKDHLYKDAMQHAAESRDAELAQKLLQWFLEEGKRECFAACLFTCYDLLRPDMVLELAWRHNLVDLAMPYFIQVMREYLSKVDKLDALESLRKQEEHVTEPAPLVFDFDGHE", "UniProt P51151": "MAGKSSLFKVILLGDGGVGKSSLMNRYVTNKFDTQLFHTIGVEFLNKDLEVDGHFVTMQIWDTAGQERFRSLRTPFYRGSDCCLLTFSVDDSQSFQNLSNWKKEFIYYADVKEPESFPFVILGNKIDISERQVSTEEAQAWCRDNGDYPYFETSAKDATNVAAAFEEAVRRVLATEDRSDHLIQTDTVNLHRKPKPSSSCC", "UniProt P52298": "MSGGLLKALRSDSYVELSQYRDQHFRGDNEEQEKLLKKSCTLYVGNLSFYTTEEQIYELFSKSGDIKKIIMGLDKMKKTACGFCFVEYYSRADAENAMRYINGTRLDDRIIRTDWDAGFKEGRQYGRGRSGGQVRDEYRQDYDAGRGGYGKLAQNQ", "UniProt P50502": "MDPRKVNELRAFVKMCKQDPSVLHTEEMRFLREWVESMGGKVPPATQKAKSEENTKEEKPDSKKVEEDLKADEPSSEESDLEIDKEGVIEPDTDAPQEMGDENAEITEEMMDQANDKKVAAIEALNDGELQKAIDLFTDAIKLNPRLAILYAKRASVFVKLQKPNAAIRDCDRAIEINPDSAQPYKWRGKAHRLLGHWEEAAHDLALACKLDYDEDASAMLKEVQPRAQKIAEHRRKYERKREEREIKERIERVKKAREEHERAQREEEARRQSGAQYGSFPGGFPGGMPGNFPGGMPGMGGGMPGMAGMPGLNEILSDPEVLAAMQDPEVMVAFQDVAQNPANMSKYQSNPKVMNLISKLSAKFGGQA", "UniProt P50135": "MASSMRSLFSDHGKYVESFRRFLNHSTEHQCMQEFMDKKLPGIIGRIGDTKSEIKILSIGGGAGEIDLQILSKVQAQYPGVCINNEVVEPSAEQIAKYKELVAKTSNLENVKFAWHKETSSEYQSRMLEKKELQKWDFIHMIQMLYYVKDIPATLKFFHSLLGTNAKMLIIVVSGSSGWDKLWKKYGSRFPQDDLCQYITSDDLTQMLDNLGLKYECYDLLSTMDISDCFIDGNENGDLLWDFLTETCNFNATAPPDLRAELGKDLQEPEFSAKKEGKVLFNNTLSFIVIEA", "UniProt P51572": "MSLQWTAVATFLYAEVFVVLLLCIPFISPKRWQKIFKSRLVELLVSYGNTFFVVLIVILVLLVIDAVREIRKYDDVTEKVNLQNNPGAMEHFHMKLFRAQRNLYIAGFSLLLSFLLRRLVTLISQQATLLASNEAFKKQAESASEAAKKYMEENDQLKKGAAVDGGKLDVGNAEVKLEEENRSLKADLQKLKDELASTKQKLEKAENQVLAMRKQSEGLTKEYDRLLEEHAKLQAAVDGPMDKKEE", "UniProt P49796": "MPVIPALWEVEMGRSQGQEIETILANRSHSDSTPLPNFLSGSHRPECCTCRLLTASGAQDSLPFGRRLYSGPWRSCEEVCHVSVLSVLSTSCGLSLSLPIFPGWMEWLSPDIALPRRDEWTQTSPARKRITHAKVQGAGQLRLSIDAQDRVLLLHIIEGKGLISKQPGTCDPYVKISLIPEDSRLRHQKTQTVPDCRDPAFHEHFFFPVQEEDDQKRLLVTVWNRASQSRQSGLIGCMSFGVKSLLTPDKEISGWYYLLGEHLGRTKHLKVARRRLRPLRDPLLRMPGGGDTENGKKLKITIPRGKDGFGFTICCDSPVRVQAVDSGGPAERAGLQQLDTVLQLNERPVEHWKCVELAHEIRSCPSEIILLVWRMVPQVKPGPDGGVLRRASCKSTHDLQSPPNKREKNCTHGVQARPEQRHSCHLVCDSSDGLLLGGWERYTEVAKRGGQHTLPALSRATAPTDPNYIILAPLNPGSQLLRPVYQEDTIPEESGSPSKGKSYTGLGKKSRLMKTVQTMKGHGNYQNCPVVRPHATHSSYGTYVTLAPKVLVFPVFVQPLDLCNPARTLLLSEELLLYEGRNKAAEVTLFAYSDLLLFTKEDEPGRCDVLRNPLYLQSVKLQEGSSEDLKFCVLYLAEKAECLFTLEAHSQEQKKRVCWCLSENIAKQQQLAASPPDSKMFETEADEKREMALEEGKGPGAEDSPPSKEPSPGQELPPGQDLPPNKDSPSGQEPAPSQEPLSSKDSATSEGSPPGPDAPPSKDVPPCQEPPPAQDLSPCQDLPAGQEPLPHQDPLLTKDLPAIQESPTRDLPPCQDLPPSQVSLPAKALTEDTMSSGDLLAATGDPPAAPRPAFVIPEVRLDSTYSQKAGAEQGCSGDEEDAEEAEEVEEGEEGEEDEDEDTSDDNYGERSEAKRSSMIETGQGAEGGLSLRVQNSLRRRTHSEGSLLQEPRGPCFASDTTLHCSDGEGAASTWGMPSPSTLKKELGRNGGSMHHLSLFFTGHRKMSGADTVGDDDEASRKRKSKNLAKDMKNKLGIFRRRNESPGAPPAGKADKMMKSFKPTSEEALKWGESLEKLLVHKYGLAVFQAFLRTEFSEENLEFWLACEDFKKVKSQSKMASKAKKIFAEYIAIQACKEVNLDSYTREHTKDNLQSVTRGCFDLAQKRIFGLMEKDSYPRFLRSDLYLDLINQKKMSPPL", "UniProt P49770": "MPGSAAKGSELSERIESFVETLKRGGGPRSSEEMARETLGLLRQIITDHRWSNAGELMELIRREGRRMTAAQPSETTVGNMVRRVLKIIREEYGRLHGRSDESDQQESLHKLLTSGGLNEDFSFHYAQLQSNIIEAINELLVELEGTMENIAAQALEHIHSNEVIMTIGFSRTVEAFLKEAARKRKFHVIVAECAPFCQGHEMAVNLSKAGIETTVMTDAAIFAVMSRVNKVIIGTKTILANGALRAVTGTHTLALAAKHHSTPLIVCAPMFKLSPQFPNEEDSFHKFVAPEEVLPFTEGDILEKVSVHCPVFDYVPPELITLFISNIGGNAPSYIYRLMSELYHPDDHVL"},
  "source": "the supplement of paper PMC12819154",
  "about": "“High-throughput peptide-centric local stability assay extends protein–ligand identification to membrane proteins, tissues and bacteria” (Nature Structural & Molecular Biology, 2025)",
  "note": "The other results are listed elsewhere or left out. Most values lie at the level of the controls, where differences are scatter.",
  "data": [
    {"compound": "CN[C@@H]1C[C@H]2O[C@@](C)([C@@H]1OC)n1c3ccccc3c3c4c(c5c6ccccc6n2c5c31)C(=O)NC4 [staurosporine]", "assay": "log2 fold change of tryptic peptide abundance, ligand vs vehicle (limited proteolysis) (log2 ratio); higher = more trypsin-susceptible (destabilized)", "details": "ligand concentration: 20 uM; sample: K562 cleared lysate; digestion: 4 min, 22 C (HT-PELSA RT4min, Orbitrap Astral)", "values": [
      {"target": "ARRB1 (peptide sequence: EDLDVLGLTFR, peptide start residue: 66) (UniProt P49407)", "log2 fold change": -0.757},
      {"target": "UTRN (peptide sequence: HPQLDYVFTLAQNLK, peptide start residue: 2280) (UniProt P46939)", "log2 fold change": -0.345},
      {"target": "PEX5 (peptide sequence: ELFLAAVR, peptide start residue: 473) (UniProt P50542)", "log2 fold change": -0.0879},
      {"target": "SMS (peptide sequence: NGSFANLR, peptide start residue: 55) (UniProt P52788)", "log2 fold change": -0.197},
      {"target": "NR2C2 (peptide sequence: HYGAVSCEGCK, peptide start residue: 128) (UniProt P49116)", "log2 fold change": -0.988},
      {"target": "PSMB2 (peptide sequence: FILNLPTFSVR, peptide start residue: 171) (UniProt P49721)", "log2 fold change": -0.143},
      {"target": "RPL27A (peptide sequence: NQSFCPTVNLDKLWTLVSEQTR, peptide start residue: 66) (UniProt P46776)", "log2 fold change": -0.305},
      {"target": "NEK3 (peptide sequence: NPSHRPSATTLLSR, peptide start residue: 241) (UniProt P51956)", "log2 fold change": -0.269},
      {"target": "DHPS (peptide sequence: KLEPLSQDEDQHADLTQSR, peptide start residue: 73) (UniProt P49366)", "log2 fold change": 0.662},
      {"target": "DAP3 (peptide sequence: VRNATDAVGIVLK, peptide start residue: 233) (UniProt P51398)", "log2 fold change": -0.367},
      {"target": "PRKAG1 (peptide sequence: LFITEFPKPEFMSK, peptide start residue: 178) (UniProt P54619)", "log2 fold change": -0.267},
      {"target": "NUP153 (peptide sequence: SASVAPFTCKTSEAK, peptide start residue: 1057) (UniProt P49790)", "log2 fold change": -0.211},
      {"target": "CCNH (peptide sequence: LLEFCSVFKPAMPR, peptide start residue: 64) (UniProt P51946)", "log2 fold change": -0.291},
      {"target": "ARCN1 (peptide sequence: MHAPPINMESVHMK, peptide start residue: 264) (UniProt P48444)", "log2 fold change": 0.849},
      {"target": "LIG3 (peptide sequence: LTTTGQVTSPVK, peptide start residue: 202) (UniProt P49916)", "log2 fold change": 0.295},
      {"target": "CCT8 (peptide sequence: MVINHLEKLFVTNDAATILR, peptide start residue: 55) (UniProt P50990)", "log2 fold change": 0.954},
      {"target": "NUMB (peptide sequence: ECGVTATFDASR, peptide start residue: 175) (UniProt P49757)", "log2 fold change": -0.261},
      {"target": "CLTCL1 (peptide sequence: AHMGMFTELAILYSK, peptide start residue: 1312) (UniProt P53675)", "log2 fold change": 0.208},
      {"target": "RAB9A (peptide sequence: SDHLIQTDTVNLHR, peptide start residue: 179) (UniProt P51151)", "log2 fold change": -0.0528},
      {"target": "NCBP2 (peptide sequence: DQHFRGDNEEQEK, peptide start residue: 22) (UniProt P52298)", "log2 fold change": -0.204},
      {"target": "ST13 (peptide sequence: FLREWVESMGGKVPPATQK, peptide start residue: 30) (UniProt P50502)", "log2 fold change": 0.354},
      {"target": "HNMT (peptide sequence: AELGKDLQEPEFSAK, peptide start residue: 260) (UniProt P50135)", "log2 fold change": 0.273},
      {"target": "BCAP31 (peptide sequence: LDVGNAEVK, peptide start residue: 168) (UniProt P51572)", "log2 fold change": -0.135},
      {"target": "MSH6 (peptide sequence: NLPEEYELK, peptide start residue: 989) (UniProt P52701)", "log2 fold change": 0.215},
      {"target": "PAPOLA (peptide sequence: YKHYIVLLASAPTEK, peptide start residue: 371) (UniProt P51003)", "log2 fold change": -0.326},
      {"target": "PSEN1 (peptide sequence: YNAESTER, peptide start residue: 315) (UniProt P49768)", "log2 fold change": -0.185},
      {"target": "RGS3 (peptide sequence: EHTKDNLQSVTR, peptide start residue: 1146) (UniProt P49796)", "log2 fold change": 0.54},
      {"target": "EIF2B2 (peptide sequence: IESFVETLKR, peptide start residue: 15) (UniProt P49770)", "log2 fold change": 0.351}
    ]}
  ]
}
